In the supplement of paper PMC5355238:
Where “and” joins values, the source holds several entries; their conditions need not be identical. Equal values may be shown once. Where a name gives a salt, the structure may show the parent alone. The list shows a part of the results. Most entries show no effect beyond the scatter of the controls.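 Reh is a human leukemia cell line; the read-out is the median γH2AX antibody signal in S-phase cells by flow cytometry, with the score counting standard deviations from the median difference of each paired set of plates. Scores above 2.5 were called candidate hits, while scores below -2 mark compounds that lowered the MK1775-induced damage.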

system: Reh; test: Z' of S-phase gammaH2AX difference (drug + MK1775 minus drug alone) (Z-score); higher = stronger synergistic S-phase DNA damage with MK1775; details: MK1775 concentration 400 nM; first compound 10 µM; 4 h

Compound	Z' of S-phase gammaH2AX difference (Z-score)
CCn1cc(C(=O)O)c(=O)c2cc(F)c(N3CCNC(C)C3)c(F)c21 (stereo unspecified) [Lomefloxacin hydrochloride] + C=CCn1c(=O)c2cnc(Nc3ccc(N4CCN(C)CC4)cc3)nc2n1-c1cccc(C(C)(C)O)n1 [MK1775]	inactive: -1.28
CS(=O)(=O)Nc1ccc([N+](=O)[O-])cc1Oc1ccccc1 [Nimesulide] + C=CCn1c(=O)c2cnc(Nc3ccc(N4CCN(C)CC4)cc3)nc2n1-c1cccc(C(C)(C)O)n1 [MK1775]	inactive: 1.01
O=C(O)C1=CCNCC1 [Isoguvacine hydrochloride] + C=CCn1c(=O)c2cnc(Nc3ccc(N4CCN(C)CC4)cc3)nc2n1-c1cccc(C(C)(C)O)n1 [MK1775]	inactive: -0.211
CCC1=C[C@@H]2CN(C1)Cc1c([nH]c3ccccc13)[C@@](C(=O)OC)(c1cc3c(cc1OC)N(C)[C@H]1[C@@](O)(C(=O)OC)[C@H](OC(C)=O)[C@]4(CC)C=CCN5CC[C@]31[C@@H]54)C2 [Vinorelbine (Navelbine)] + C=CCn1c(=O)c2cnc(Nc3ccc(N4CCN(C)CC4)cc3)nc2n1-c1cccc(C(C)(C)O)n1 [MK1775]	inactive: -0.0954
CO[C@H]1C[C@@H]2CC[C@@H](C)[C@@](O)(O2)C(=O)C(=O)N2CCCC[C@H]2C(=O)O[C@H]([C@H](C)C[C@@H]2CC[C@@H](O)[C@H](OC)C2)CC(=O)[C@H](C)/C=C(\C)[C@@H](O)[C@@H](OC)C(=O)[C@H](C)C[C@H](C)/C=C/C=C/C=C/1C [Rapamycin (Sirolimus)] + C=CCn1c(=O)c2cnc(Nc3ccc(N4CCN(C)CC4)cc3)nc2n1-c1cccc(C(C)(C)O)n1 [MK1775]	inactive: -0.163
Nc1ncnc2c1ncn2C1OC(C(=O)NC2CC2)C(O)C1O (stereo unspecified) [5'-(N-Cyclopropyl)carboxamidoadenosine] + C=CCn1c(=O)c2cnc(Nc3ccc(N4CCN(C)CC4)cc3)nc2n1-c1cccc(C(C)(C)O)n1 [MK1775]	inactive: 1.23
Oc1ccc(Nc2nc(-c3ccc(Cl)cc3)cs2)cc1 + C=CCn1c(=O)c2cnc(Nc3ccc(N4CCN(C)CC4)cc3)nc2n1-c1cccc(C(C)(C)O)n1 [MK1775]	inactive: -0.0466
CNc1cc(NS(=O)(=O)c2ccc(N)cc2)nc(NC)n1 [Ro 04-6790 dihydrochloride] + C=CCn1c(=O)c2cnc(Nc3ccc(N4CCN(C)CC4)cc3)nc2n1-c1cccc(C(C)(C)O)n1 [MK1775]	inactive: -0.196
CC1=C(C)C(=O)C(CCCCC#CCCCC#CCO)=C(C)C1=O + C=CCn1c(=O)c2cnc(Nc3ccc(N4CCN(C)CC4)cc3)nc2n1-c1cccc(C(C)(C)O)n1 [MK1775]	inactive: 0.204
CC(C)NCC(O)c1ccc(NS(C)(=O)=O)cc1 (stereo unspecified) [(?)-Sotalol hydrochloride] + C=CCn1c(=O)c2cnc(Nc3ccc(N4CCN(C)CC4)cc3)nc2n1-c1cccc(C(C)(C)O)n1 [MK1775]	inactive: 0.692
CN(C)CCCCSC(=N)N + C=CCn1c(=O)c2cnc(Nc3ccc(N4CCN(C)CC4)cc3)nc2n1-c1cccc(C(C)(C)O)n1 [MK1775]	inactive: 0.349 and inactive: 0.189
CC(=O)N1CCN(c2ccc(OCC3COC(Cn4ccnc4)(c4ccc(Cl)cc4Cl)O3)cc2)CC1 (stereo unspecified) [Ketoconazole] + C=CCn1c(=O)c2cnc(Nc3ccc(N4CCN(C)CC4)cc3)nc2n1-c1cccc(C(C)(C)O)n1 [MK1775]	inactive: 0.673
O=c1c(-c2ccc(O)cc2)coc2cc(O)cc(O)c12 [Genistein] + C=CCn1c(=O)c2cnc(Nc3ccc(N4CCN(C)CC4)cc3)nc2n1-c1cccc(C(C)(C)O)n1 [MK1775]	inactive: -0.357
C[C@H](NC(=O)Cc1cc(F)cc(F)c1)C(=O)N[C@@H]1C(=O)N(C)c2ccccc2-c2ccccc21 + C=CCn1c(=O)c2cnc(Nc3ccc(N4CCN(C)CC4)cc3)nc2n1-c1cccc(C(C)(C)O)n1 [MK1775]	inactive: -0.054
COC(=O)[C@H]1[C@H]2C[C@@H]3c4[nH]c5cc(OC)ccc5c4CCN3C[C@H]2C[C@@H](OC(=O)c2cc(OC)c(OC)c(OC)c2)[C@@H]1OC [Reserpine] + C=CCn1c(=O)c2cnc(Nc3ccc(N4CCN(C)CC4)cc3)nc2n1-c1cccc(C(C)(C)O)n1 [MK1775]	inactive: -0.324
O=C(O)CN(CCOCCOCCN(CC(=O)O)CC(=O)O)CC(=O)O + C=CCn1c(=O)c2cnc(Nc3ccc(N4CCN(C)CC4)cc3)nc2n1-c1cccc(C(C)(C)O)n1 [MK1775]	inactive: 1.3
CNC(=C[N+](=O)[O-])NCCSCc1ccc(CN(C)C)o1 [Ranitidine hydrochloride] + C=CCn1c(=O)c2cnc(Nc3ccc(N4CCN(C)CC4)cc3)nc2n1-c1cccc(C(C)(C)O)n1 [MK1775]	inactive: 0.0615
CC(C)C[C@H](NC(=O)[C@@H](O)[C@H](N)Cc1ccccc1)C(=O)O [Bestatin hydrochloride] + C=CCn1c(=O)c2cnc(Nc3ccc(N4CCN(C)CC4)cc3)nc2n1-c1cccc(C(C)(C)O)n1 [MK1775]	inactive: 0.351

Single values from the results shown:
Value for CC(C)C[C@H](NC(=O)[C@@H](O)[C@H](N)Cc1ccccc1)C(=O)O [Bestatin hydrochloride] + C=CCn1c(=O)c2cnc(Nc3ccc(N4CCN(C)CC4)cc3)nc2n1-c1cccc(C(C)(C)O)n1 [MK1775] under Z' of S-phase gammaH2AX difference (Z-score): inactive: 0.351
Value for CNC(=C[N+](=O)[O-])NCCSCc1ccc(CN(C)C)o1 [Ranitidine hydrochloride] + C=CCn1c(=O)c2cnc(Nc3ccc(N4CCN(C)CC4)cc3)nc2n1-c1cccc(C(C)(C)O)n1 [MK1775] under Z' of S-phase gammaH2AX difference (Z-score): inactive: 0.0615

More entries follow.

Compound	Z' of S-phase gammaH2AX difference (Z-score)
CC(C)C[C@H](NC(=O)[C@@H](O)[C@H](N)Cc1ccccc1)C(=O)O [Ubenimex (Bestatin)] + C=CCn1c(=O)c2cnc(Nc3ccc(N4CCN(C)CC4)cc3)nc2n1-c1cccc(C(C)(C)O)n1 [MK1775]	inactive: 0.27
CC(C)C[C@H](NC(=O)CNC(=O)c1cc(Cl)ccc1Cl)B(O)O + C=CCn1c(=O)c2cnc(Nc3ccc(N4CCN(C)CC4)cc3)nc2n1-c1cccc(C(C)(C)O)n1 [MK1775]	inactive: -0.725
O=C(O[C@@H]1Cc2c(O)cc(O)cc2O[C@@H]1c1cc(O)c(O)c(O)c1)c1cc(O)c(O)c(O)c1 [(-)-Epigallocatechin gallate] + C=CCn1c(=O)c2cnc(Nc3ccc(N4CCN(C)CC4)cc3)nc2n1-c1cccc(C(C)(C)O)n1 [MK1775]	inactive: 0.511
CCOc1ccn(-c2ccc(F)cc2)c(=O)c1C(=O)Nc1ccc(Oc2ccnc(N)c2Cl)c(F)c1 + C=CCn1c(=O)c2cnc(Nc3ccc(N4CCN(C)CC4)cc3)nc2n1-c1cccc(C(C)(C)O)n1 [MK1775]	inactive: 0.109
[Cl-].[Li+] [Lithium Chloride] + C=CCn1c(=O)c2cnc(Nc3ccc(N4CCN(C)CC4)cc3)nc2n1-c1cccc(C(C)(C)O)n1 [MK1775]	inactive: -0.0462
CCN(CC)CCNC(=O)c1ccc(NC(C)=O)cc1 [N-Acetylprocainamide hydrochloride] + C=CCn1c(=O)c2cnc(Nc3ccc(N4CCN(C)CC4)cc3)nc2n1-c1cccc(C(C)(C)O)n1 [MK1775]	inactive: -0.194
CCCCCCN(CCCCCC)C(=O)Cc1c(-c2ccc(F)cc2)[nH]c2ccccc12 [N,N-Dihexyl-2-(4-fluorophenyl)indole-3-acetamide] + C=CCn1c(=O)c2cnc(Nc3ccc(N4CCN(C)CC4)cc3)nc2n1-c1cccc(C(C)(C)O)n1 [MK1775]	inactive: 0.828
CC(=O)NNC(=O)N1Cc2ccccc2Oc2ccc(Cl)cc21 + C=CCn1c(=O)c2cnc(Nc3ccc(N4CCN(C)CC4)cc3)nc2n1-c1cccc(C(C)(C)O)n1 [MK1775]	inactive: -0.557
CNC[C@H](O)c1cccc(O)c1 [Phenylephrine hydrochloride] + C=CCn1c(=O)c2cnc(Nc3ccc(N4CCN(C)CC4)cc3)nc2n1-c1cccc(C(C)(C)O)n1 [MK1775]	inactive: -0.0776
Cc1ccccc1/C=C/C1=NCCN1 [Metrazoline oxalate] + C=CCn1c(=O)c2cnc(Nc3ccc(N4CCN(C)CC4)cc3)nc2n1-c1cccc(C(C)(C)O)n1 [MK1775]	inactive: 0.121
COc1ccc(CCN(C)CCc2ccc(OC)c(OC)c2)cc1OC [YS-035 hydrochloride] + C=CCn1c(=O)c2cnc(Nc3ccc(N4CCN(C)CC4)cc3)nc2n1-c1cccc(C(C)(C)O)n1 [MK1775]	inactive: 0.725
CC1(CN2CCC(n3c(=O)[nH]c4ccccc43)CC2)OCc2ccccc2-n2cccc21 (stereo unspecified) + C=CCn1c(=O)c2cnc(Nc3ccc(N4CCN(C)CC4)cc3)nc2n1-c1cccc(C(C)(C)O)n1 [MK1775]	inactive: 0.455
CC[N+](CC)(CC)CC [Tetraethylammonium chloride] + C=CCn1c(=O)c2cnc(Nc3ccc(N4CCN(C)CC4)cc3)nc2n1-c1cccc(C(C)(C)O)n1 [MK1775]	inactive: 0.759
Cc1cccc(-c2[nH]c(C(C)(C)C)nc2-c2ccc3nccnc3c2)n1 + C=CCn1c(=O)c2cnc(Nc3ccc(N4CCN(C)CC4)cc3)nc2n1-c1cccc(C(C)(C)O)n1 [MK1775]	inactive: -0.0214
N=c1ccn2c(n1)O[C@H]1[C@H](O)[C@@H](CO)O[C@H]12 [Ancitabine hydrochloride] + C=CCn1c(=O)c2cnc(Nc3ccc(N4CCN(C)CC4)cc3)nc2n1-c1cccc(C(C)(C)O)n1 [MK1775]	inactive: 1.91
C[N+](C)(C)CCO.[Br-] [Choline bromide] + C=CCn1c(=O)c2cnc(Nc3ccc(N4CCN(C)CC4)cc3)nc2n1-c1cccc(C(C)(C)O)n1 [MK1775]	inactive: 0.15
O=c1[nH]cc(F)c(=O)[nH]1 [Adrucil (Fluorouracil)] + C=CCn1c(=O)c2cnc(Nc3ccc(N4CCN(C)CC4)cc3)nc2n1-c1cccc(C(C)(C)O)n1 [MK1775]	inactive: -0.00222
O=c1[nH]cc(F)c(=O)[nH]1 [5-Fluorouracil] + C=CCn1c(=O)c2cnc(Nc3ccc(N4CCN(C)CC4)cc3)nc2n1-c1cccc(C(C)(C)O)n1 [MK1775]	inactive: -1.38
